Measurements as given in patent publication US20080021105A1, “Medicine Capable of Inhibiting Activation of Transcription Factor Klf5” (THE UNIVERSITY OF TOKYO, priority 2004, published 2008).

System: vascular intimal hyperplasia resulted from vascular injury due to the cuff
Experiment: Mouse cuff-induced injury model, Example 3-2 (EVG staining)
Assay type: in vivo, C57BL6/N mice
Method: Vascular remodeling analysis was performed by using a cuff-induced injury model. Usefulness of this model in relation to vascular remodeling has been reported (Physiol. Genomics, 2, pp.13-30, 2000; Circulation, 104, pp.2716-2721; Circulation, 106, pp.847-853, 2002). For this experiment, 8-week old male C57BL6/N mice (10 animals/group) were used. In an amount of 100 or 200 mg/kg of NIK-333 or 5 or 10 mg/kg of ATRA suspended in soybean oil was orally given once daily every day from 7 days before placement of a cuff (placement of polyethylene tube around blood vessel) to the day before sacrifice. The control group were received soybean oil alone in the same manner. After the 7-day pretreatment, the right femoral artery was covered with PE50 (polyethylene tube 50, outer diameter: 0.965 mm, length: about 1.5 mm) as a cuff. The animals were sacrificed after 5 weeks. Blood was collected, and the cuff was removed under perfusion fixation via puncture of the left ventricle. For pathological evaluation, Elastica van Gieson (EVG) staining was performed. As a result, the ratio of I/M (intima/media) in vascular intimal hyperplasia resulted from vascular injury due to the cuff decreased in the NIK-333 treatment groups compared with the control group.

Which results are given for `CC1=C(/C=C/C(C)=C/C=C/C(C)=C/C(=O)O)C(C)(C)CCC1` [ATRA, all-trans-retinoic acid]?
significance of I/M ratio (5 mg/kg): No significant difference; significance of I/M ratio (10 mg/kg): No significant difference
